Results as given in the supplement of paper PMC6411743.
± gives the standard deviation of the averaged measurements. This is one part of the list.

Amino acid sequences for entries named in this document (tags omitted). A change or cut given only in a name is not applied to a line headed by its entry.
UniProt Q13557, whole entry: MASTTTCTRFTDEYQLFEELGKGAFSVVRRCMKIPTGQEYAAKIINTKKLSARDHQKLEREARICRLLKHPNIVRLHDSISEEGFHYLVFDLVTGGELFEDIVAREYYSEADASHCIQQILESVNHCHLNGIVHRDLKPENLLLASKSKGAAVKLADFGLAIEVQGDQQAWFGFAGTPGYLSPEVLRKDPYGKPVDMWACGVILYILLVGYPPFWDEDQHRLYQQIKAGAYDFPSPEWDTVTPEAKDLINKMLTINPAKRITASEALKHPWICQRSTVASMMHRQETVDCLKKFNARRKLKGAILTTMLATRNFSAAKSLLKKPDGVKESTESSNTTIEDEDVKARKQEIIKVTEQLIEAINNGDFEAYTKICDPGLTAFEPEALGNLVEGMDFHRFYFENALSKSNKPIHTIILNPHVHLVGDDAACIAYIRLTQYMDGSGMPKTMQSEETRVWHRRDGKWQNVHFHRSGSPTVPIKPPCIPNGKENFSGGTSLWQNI
UniProt P42892: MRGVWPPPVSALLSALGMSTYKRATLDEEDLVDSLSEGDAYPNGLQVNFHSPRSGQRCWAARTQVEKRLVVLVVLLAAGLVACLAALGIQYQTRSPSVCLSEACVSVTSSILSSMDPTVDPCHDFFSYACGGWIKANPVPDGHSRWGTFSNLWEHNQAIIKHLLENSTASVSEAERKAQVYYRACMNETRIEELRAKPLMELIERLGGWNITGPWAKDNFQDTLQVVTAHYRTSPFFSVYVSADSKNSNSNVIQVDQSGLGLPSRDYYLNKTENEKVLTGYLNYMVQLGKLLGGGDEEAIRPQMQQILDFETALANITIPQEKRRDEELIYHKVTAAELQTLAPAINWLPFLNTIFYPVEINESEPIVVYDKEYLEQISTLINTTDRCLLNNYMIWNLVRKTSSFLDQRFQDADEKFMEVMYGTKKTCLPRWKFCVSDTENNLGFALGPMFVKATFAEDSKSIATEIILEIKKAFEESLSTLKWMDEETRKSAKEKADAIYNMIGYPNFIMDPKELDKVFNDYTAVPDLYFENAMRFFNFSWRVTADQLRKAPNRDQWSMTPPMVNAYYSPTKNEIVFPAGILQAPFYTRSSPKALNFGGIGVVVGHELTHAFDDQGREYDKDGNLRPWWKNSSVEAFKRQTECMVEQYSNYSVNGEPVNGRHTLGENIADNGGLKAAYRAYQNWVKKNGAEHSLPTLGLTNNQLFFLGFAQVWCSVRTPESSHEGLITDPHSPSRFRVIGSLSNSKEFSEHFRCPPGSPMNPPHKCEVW
UniProt O43772: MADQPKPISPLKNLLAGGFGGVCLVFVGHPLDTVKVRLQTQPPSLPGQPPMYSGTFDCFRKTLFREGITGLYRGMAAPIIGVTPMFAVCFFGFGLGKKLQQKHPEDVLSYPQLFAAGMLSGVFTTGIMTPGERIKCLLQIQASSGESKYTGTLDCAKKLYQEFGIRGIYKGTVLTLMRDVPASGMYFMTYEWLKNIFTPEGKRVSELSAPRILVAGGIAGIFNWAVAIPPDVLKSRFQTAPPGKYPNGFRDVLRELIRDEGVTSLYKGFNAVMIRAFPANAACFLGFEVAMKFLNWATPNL
UniProt P08133: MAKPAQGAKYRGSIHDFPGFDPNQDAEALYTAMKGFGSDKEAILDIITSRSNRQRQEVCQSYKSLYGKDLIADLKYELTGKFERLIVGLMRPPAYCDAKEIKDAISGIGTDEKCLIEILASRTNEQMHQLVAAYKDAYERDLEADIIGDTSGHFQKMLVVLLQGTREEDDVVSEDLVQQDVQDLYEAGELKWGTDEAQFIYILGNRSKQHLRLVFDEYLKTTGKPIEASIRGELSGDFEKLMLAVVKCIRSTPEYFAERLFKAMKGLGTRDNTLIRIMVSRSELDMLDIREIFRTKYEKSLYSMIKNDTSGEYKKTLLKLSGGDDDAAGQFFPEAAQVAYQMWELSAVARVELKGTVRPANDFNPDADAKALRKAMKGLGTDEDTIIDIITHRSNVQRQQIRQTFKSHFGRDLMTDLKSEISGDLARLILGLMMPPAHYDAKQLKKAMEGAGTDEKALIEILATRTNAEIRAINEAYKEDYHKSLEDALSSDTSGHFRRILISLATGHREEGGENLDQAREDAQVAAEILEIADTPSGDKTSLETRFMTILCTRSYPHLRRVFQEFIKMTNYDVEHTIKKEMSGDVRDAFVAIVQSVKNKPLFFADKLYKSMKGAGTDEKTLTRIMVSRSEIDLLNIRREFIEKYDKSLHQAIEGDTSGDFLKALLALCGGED
UniProt P43243: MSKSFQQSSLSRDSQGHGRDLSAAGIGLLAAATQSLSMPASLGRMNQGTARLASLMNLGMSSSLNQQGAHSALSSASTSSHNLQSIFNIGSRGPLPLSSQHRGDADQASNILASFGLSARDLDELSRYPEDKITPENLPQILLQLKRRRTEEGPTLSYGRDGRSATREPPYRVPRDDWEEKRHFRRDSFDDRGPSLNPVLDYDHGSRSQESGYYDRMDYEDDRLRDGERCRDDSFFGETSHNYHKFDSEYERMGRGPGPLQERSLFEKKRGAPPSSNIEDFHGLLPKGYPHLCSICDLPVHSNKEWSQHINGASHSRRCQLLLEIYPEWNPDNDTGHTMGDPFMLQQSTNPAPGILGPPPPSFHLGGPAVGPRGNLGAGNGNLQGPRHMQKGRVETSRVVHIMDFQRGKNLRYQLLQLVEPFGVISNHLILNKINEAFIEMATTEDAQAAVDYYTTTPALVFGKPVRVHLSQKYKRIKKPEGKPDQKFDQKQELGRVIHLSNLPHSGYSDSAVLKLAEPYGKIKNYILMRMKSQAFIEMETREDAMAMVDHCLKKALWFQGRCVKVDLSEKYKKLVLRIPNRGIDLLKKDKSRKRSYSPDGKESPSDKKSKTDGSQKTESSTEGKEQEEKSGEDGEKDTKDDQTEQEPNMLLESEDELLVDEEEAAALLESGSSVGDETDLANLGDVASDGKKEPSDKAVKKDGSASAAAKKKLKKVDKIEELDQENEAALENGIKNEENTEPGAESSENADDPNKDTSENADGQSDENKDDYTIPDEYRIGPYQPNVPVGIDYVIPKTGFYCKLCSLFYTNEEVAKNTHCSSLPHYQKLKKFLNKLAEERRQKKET
UniProt Q9UH03, whole entry: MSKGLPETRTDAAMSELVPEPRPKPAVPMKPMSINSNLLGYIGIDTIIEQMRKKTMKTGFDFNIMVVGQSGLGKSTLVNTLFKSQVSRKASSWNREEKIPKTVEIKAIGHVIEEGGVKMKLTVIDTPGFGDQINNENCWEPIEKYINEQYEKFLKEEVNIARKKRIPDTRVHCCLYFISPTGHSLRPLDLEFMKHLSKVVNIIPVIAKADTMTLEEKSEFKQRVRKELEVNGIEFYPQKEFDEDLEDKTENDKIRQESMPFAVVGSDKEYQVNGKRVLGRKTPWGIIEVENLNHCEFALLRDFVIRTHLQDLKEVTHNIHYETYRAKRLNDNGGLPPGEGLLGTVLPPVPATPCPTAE
UniProt Q14919: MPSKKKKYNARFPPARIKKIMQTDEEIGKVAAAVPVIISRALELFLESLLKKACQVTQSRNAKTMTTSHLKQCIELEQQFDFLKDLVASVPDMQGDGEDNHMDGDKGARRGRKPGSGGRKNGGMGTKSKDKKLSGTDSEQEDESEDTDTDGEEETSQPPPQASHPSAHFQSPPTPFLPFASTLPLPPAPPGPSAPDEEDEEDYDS
UniProt O00244: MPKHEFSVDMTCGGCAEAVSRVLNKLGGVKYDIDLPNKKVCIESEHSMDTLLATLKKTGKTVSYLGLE
UniProt P15954, whole entry: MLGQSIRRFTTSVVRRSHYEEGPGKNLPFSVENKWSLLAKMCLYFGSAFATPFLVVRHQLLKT
UniProt O95071: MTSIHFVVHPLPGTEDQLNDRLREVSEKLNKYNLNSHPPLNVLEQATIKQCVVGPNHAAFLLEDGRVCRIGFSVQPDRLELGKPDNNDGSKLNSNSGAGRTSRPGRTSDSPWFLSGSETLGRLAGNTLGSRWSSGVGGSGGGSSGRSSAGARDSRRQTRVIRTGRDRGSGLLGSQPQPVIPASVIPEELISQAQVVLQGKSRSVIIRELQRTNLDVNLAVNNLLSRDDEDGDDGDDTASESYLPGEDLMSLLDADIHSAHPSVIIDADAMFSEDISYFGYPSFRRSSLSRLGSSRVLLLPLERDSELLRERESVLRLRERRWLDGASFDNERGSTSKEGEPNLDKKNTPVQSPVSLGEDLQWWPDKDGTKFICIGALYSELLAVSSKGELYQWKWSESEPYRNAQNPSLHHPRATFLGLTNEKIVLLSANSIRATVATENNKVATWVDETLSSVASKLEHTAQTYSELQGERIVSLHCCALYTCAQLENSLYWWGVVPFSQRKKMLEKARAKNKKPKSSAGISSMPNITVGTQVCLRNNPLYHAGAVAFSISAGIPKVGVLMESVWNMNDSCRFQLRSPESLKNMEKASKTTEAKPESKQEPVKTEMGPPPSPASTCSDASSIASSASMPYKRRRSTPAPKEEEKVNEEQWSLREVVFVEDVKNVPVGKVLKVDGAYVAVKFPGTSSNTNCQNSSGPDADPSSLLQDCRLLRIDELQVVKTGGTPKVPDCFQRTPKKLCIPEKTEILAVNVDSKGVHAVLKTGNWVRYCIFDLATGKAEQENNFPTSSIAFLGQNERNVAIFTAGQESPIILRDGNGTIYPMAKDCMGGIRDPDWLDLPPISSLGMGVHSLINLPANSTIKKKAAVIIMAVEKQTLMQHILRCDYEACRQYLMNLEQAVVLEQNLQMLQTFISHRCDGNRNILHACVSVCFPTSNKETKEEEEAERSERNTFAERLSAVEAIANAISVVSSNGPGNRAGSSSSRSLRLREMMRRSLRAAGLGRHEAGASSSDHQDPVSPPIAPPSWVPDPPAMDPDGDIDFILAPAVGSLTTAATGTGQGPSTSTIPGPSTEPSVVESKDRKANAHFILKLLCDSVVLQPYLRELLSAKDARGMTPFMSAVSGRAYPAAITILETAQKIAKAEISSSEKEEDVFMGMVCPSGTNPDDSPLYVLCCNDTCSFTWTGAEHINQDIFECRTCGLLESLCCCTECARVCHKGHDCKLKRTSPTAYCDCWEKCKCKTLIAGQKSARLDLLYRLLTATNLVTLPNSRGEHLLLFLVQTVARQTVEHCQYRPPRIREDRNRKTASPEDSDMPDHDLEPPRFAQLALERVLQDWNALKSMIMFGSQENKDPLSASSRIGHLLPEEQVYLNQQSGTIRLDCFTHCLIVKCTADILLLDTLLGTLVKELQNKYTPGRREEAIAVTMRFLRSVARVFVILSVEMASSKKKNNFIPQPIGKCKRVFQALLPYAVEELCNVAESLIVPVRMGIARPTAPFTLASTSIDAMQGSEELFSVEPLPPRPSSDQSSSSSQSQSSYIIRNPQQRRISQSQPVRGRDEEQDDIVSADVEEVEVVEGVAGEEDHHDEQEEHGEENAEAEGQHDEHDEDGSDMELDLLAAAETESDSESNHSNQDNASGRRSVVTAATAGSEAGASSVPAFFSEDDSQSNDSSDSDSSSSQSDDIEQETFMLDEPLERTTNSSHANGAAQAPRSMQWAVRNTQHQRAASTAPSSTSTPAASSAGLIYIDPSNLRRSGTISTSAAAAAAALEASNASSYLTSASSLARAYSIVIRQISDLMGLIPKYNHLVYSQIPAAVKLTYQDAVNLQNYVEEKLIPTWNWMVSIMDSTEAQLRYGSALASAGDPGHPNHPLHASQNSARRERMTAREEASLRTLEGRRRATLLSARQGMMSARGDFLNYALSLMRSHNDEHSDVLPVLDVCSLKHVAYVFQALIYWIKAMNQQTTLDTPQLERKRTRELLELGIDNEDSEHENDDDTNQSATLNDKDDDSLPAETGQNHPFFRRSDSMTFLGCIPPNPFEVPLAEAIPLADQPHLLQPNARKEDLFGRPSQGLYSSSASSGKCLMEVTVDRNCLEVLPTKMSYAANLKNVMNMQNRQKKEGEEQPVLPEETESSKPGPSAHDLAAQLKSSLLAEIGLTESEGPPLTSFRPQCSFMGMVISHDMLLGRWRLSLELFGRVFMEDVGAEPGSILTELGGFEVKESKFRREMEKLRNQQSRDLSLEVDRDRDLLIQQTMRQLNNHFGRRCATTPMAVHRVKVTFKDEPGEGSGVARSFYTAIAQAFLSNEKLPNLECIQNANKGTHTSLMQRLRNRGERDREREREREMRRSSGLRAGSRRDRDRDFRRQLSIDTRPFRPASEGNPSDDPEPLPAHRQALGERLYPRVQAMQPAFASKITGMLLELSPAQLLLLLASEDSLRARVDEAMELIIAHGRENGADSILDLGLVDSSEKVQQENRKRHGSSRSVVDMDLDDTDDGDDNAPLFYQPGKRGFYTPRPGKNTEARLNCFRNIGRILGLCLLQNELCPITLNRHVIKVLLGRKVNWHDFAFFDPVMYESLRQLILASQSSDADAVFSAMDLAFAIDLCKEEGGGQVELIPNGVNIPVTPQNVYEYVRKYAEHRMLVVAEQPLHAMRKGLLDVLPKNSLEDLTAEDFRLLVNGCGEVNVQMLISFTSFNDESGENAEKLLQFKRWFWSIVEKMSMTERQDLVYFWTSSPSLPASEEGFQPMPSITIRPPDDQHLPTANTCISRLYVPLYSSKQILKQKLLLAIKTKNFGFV

Compound: Nc1nc2c(ncn2[C@@H]2O[C@H](COP(=O)(O)OP(=O)(O)OP(=O)(O)O)[C@@H](O)[C@H]2O)c(=O)[nH]1 [guanosine triphosphate]
Assay: NP40-soluble protein abundance relative to vehicle (solubility fold change) (ratio); higher = more soluble protein in presence of GTP
Conditions: concentration: 0.5mM
How it was run: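 Eight concentrations, 0.1 to 10 mM, were tested on Jurkat crude lysate for 10 min at room temperature and then 3 min at 37 °C, in three independent experiments. The lysate was solubilised with 0.8% NP40 and benzonase, ultracentrifuged, and the supernatant TMT-labelled for LC-MS/MS. Each value is the fold change against the detergent-processed vehicle in its own replicate, from vsn-normalised intensities.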

| Target | NP40-soluble protein abundance |
| --- | --- |
| D6R938 and related entries (UniProt Q13557) | 1.04 ± 0.14 |
| B4DKB2 and related entries (UniProt P42892) | 1.15 ± 0.062 |
| C9JPE1 and related entries (UniProt O43772) | 1.07 ± 0.074 |
| E5RJF5 and related entries (UniProt P08133) | 0.962 ± 0.024 |
| D6RAN4 and related entries (UniProt P32969) | 1.01 ± 0.11 |
| A8MUS3 and related entries (UniProt P62750) | 0.943 ± 0.041 |
| A8MXP9 and related entries (UniProt P43243) | 0.998 ± 0.036 |
| B1AHR1 and related entries (UniProt Q9UH03) | 1.061 ± 0.002 |

Same assay, conditions: concentration: 1mM

| Target | NP40-soluble protein abundance |
| --- | --- |
| C9K025 and related entries (UniProt P18077) | 1.05 ± 0.31 |
| B4E2Q0 and related entries (UniProt P98194) | 0.953 ± 0.07 |
| B7Z9U0 and related entries (UniProt Q9UFF9) | 1.12 ± 0.19 |
| B4E1G1 and related entries (UniProt Q9BUN8) | 1.01 ± 0.085 |
| C9J8Q1 and related entries (UniProt Q9UMS0) | 0.97 ± 0.06 |
| B1AH77 and related entries (UniProt P15153) | 0.924 ± 0.015 |
| B0YIW6 and related entries (UniProt P48444) | 1.02 ± 0.066 |
| B4DGU4 and related entries (UniProt P35222) | 1.06 ± 0.032 |
| B7ZBK4 and related entries (UniProt Q92664) | 1.02 ± 0.12 |
| C9J6U3 and related entries (UniProt O60879) | 0.994 ± 0.063 |
| C9J2Y1 and related entries (UniProt P49116) | 0.976 ± 0.047 |
| C9JCC6 and related entries (UniProt Q14919) | 1.03 ± 0.18 |
| B4DDD6 and related entries (UniProt Q9UJU6) | 0.931 ± 0.054 |
| B4DJ62 and related entries (UniProt Q99719) | 1.09 ± 0.061 |
| D6RIH7 and related entries (UniProt Q9UM22) | 0.91 ± 0.12 |
| A6NIW2 and related entries (UniProt Q5JSL3) | 1.03 ± 0.1 |
| C9IY68 and related entries (UniProt Q9BQ75) | 1.06 ± 0.071 |
| B8ZZU8 and related entries (UniProt Q15370) | 0.954 ± 0.028 |
| B7ZBM8 and related entries (UniProt O14662) | 1.011 ± 0.0054 |

| Target | NP40-soluble protein abundance |
| --- | --- |
| E5RIH5 and related entries (UniProt Q6NXR4) | 1.03 ± 0.062 |
| A8MT02 and related entries (UniProt P14678) | 1.19 ± 0.21 |
| D6RER5 and related entries (UniProt Q9NVA2) | 1.01 ± 0.095 |
| E5RGN3 and related entries (UniProt O00244) | 1 ± 0.14 |
| D6RHU3 and related entries (UniProt P55212) | 0.92 ± 0.011 |
| D6R9Z7 and related entries (UniProt P15954) | 1.04 ± 0.14 |
| C9J494 and related entries (UniProt Q9H000) | 0.966 ± 0.051 |
| E7EMW7 and related entries (UniProt O95071) | 1.24 ± 0.21 |
| A8K7Q2 and related entries (UniProt P11142) | 0.994 ± 0.084 |
| E7EMA9 and related entries (UniProt Q32M88) | 1.06 ± 0.23 |
| B4DWF2 and related entries (UniProt Q9UKS7) | 1.03 ± 0.062 |
| D6R938 and related entries (UniProt Q13557) | 1.07 ± 0.14 |
| B4DKB2 and related entries (UniProt P42892) | 1.28 ± 0.036 |
| C9JPE1 and related entries (UniProt O43772) | 0.925 ± 0.066 |
| E5RJF5 and related entries (UniProt P08133) | 0.906 ± 0.034 |
| D6RAN4 and related entries (UniProt P32969) | 1.05 ± 0.25 |
| A8MUS3 and related entries (UniProt P62750) | 1.07 ± 0.13 |
| A8MXP9 and related entries (UniProt P43243) | 1.04 ± 0.025 |
| B1AHR1 and related entries (UniProt Q9UH03) | 1.03 ± 0.053 |

Same assay, conditions: concentration: 2mM

| Target | NP40-soluble protein abundance |
| --- | --- |
| C9K025 and related entries (UniProt P18077) | 1.06 ± 0.4 |
| B4E2Q0 and related entries (UniProt P98194) | 0.957 ± 0.015 |
| B7Z9U0 and related entries (UniProt Q9UFF9) | 1.09 ± 0.19 |
| B4E1G1 and related entries (UniProt Q9BUN8) | 1.025 ± 0.0097 |
| C9J8Q1 and related entries (UniProt Q9UMS0) | 0.945 ± 0.15 |
| B1AH77 and related entries (UniProt P15153) | 0.866 ± 0.02 |
| B0YIW6 and related entries (UniProt P48444) | 1.01 ± 0.11 |
| B4DGU4 and related entries (UniProt P35222) | 1.01 ± 0.066 |
| B7ZBK4 and related entries (UniProt Q92664) | 1.02 ± 0.14 |
| C9J6U3 and related entries (UniProt O60879) | 0.983 ± 0.074 |
| C9J2Y1 and related entries (UniProt P49116) | 1.01 ± 0.06 |
| C9JCC6 and related entries (UniProt Q14919) | 0.98 ± 0.089 |
| B4DDD6 and related entries (UniProt Q9UJU6) | 0.87 ± 0.044 |
| B4DJ62 and related entries (UniProt Q99719) | 1.13 ± 0.017 |
| D6RIH7 and related entries (UniProt Q9UM22) | 0.896 ± 0.13 |
| A6NIW2 and related entries (UniProt Q5JSL3) | 1.02 ± 0.13 |
| C9IY68 and related entries (UniProt Q9BQ75) | 1.1 ± 0.058 |
| B8ZZU8 and related entries (UniProt Q15370) | 0.915 ± 0.06 |
| B7ZBM8 and related entries (UniProt O14662) | 1.02 ± 0.018 |

| Target | NP40-soluble protein abundance |
| --- | --- |
| E5RIH5 and related entries (UniProt Q6NXR4) | 1.05 ± 0.065 |
| A8MT02 and related entries (UniProt P14678) | 1.21 ± 0.19 |
| D6RER5 and related entries (UniProt Q9NVA2) | 1.02 ± 0.064 |
| E5RGN3 and related entries (UniProt O00244) | 1 ± 0.1 |
| D6RHU3 and related entries (UniProt P55212) | 0.885 ± 0.081 |
| D6R9Z7 and related entries (UniProt P15954) | 0.9732 ± 0.0089 |
| C9J494 and related entries (UniProt Q9H000) | 0.947 ± 0.056 |
| E7EMW7 and related entries (UniProt O95071) | 1.33 ± 0.25 |
| A8K7Q2 and related entries (UniProt P11142) | 0.931 ± 0.092 |
| E7EMA9 and related entries (UniProt Q32M88) | 1.12 ± 0.04 |
| B4DWF2 and related entries (UniProt Q9UKS7) | 1.08 ± 0.034 |
| D6R938 and related entries (UniProt Q13557) | 1.08 ± 0.15 |
| B4DKB2 and related entries (UniProt P42892) | 1.35 ± 0.11 |
| C9JPE1 and related entries (UniProt O43772) | 0.951 ± 0.11 |
| E5RJF5 and related entries (UniProt P08133) | 0.87 ± 0.025 |
| D6RAN4 and related entries (UniProt P32969) | 0.993 ± 0.3 |
| A8MUS3 and related entries (UniProt P62750) | 1.01 ± 0.14 |
| A8MXP9 and related entries (UniProt P43243) | 1.02 ± 0.054 |
| B1AHR1 and related entries (UniProt Q9UH03) | 1.02 ± 0.08 |
